Positions count from the first letter of the chain named. These are yes or no findings as the source states them, for the method shown. Binding can be weak; no strength is given.
B1: CHG1-M-MIA-6E4 (antibody, V domains shown)
VH: EVQLVESGGALVKPGGSLKLSCAASGFTFSYYAMSWVRQTPEKRLEWVATISRGGNYIYYTDSVKGRFTISRDNAKNTLYLQMTSLRSEDTAMFYCASISDYDGAWLAYWGQGTTLTVSS
VL: DVLMTQTPLSLPVSLGDQASISCRSSQSIIHTNGNTYLEWYLQKPGQSPKLLIYKISNRFSGVPDRFSGSGSGTDFTLKISRVEAEDLGVYYCFQGSHVPWTFGGGTKLEIKR
B2: CHG1-M-MIA-20C6 (antibody, V domains shown)
VH: QITLKESGPGILKPSQTLSLTCSFSGFSLSTSGMGVGWIRQPSGKGLEWLAHIWWDDDKYYNPSLKSQLTISKDTSRNQVFLRITSVDTADTATYYCARRTQGYFDYWGQGTTLTVSS
VL: DIVMTQSPATLSVTPGDRVSLSCRASQSISDYLHWYQQKSHESPRLLIKYASQSISGIPSRFSGSGSGSDFTLSINSVEPEDVGVYYCQNGHSFPWTFGGGTKLEIKR
B3: CHG1-M-MIA-10F3 (antibody, human IgG1, V domains shown)
VH: QVQLQQSAAELARPGASVKMSCKASGYTFTSYTMHWVKQRPGQGLEWIGYINPSSGYTEYNQKFKDKTTLTVDKSSTTSYMQLSSLTSDNSAVYYCARGGDWDVDWFVYWGQGTLVTVSA
VL: QIVLTQSPAIMSASPGEKVTITCSASSSISYMHWFQQKPGTSPKLWIYSTSKLASGVPARFSGSGSGTSHSLTISRMEAEDAATYYCQHRSTYPFTFGSGTKLEIK
B4: CHG1-M-MIA-9C10 (antibody, human IgG1, V domains shown)
VH: QVQLQQPGAELVRPGTSVNLSCKASGYSFTRYWMNWVKQRPGQGLEWIGMIHPSDSETRLNQKFKDKATLTVDKSSSTAYMQLSSPTSEDSAVYYCGYGNFFYVMDYWGQGTSVTVSS
VL: DILLTQSPAILSVSPGERVSFSCRASQSIGTSIHWYQQRTNGSPRLLIKFASESISGIPSRFSGSGSGTDFTLNINSVESEDIADYYCQQSNFWPFTFGSGTKLEVK
B5: CHG1-M-MIA-14B4 (antibody, V domains shown)
VH: QVQLQQPGAELVRPGASVKLSCKASGYSFTSYWMNWMKQRPGQGLEWIGMIHPSDSETRLNQKFKDKATLTVDKSSSTAYMQLNSPTSEDSAVYYCAREMGPYTLDYWGQGTSVTVSS
VL: B4 VL with E17A, S28N, G30D, F50Y, N74S, F93Y, F96L, S100A, V106L
B6: CHG1-M-MIA-12A10 (antibody, human IgG1, V domains shown)
VH: QVQLQQSGADLVRPGASVRLSCRASGYSFTNYWMNWVKQRPGQGLEWIGMIHPSDSETRLNQKFKDKATLTVDKSSNTAYMQLSSPTSEDSAIYYCARDDFFTMDYWGQGTSVTVSS
VL: B4 VL with S28N, G30V, R39S, F50Y, N74T, I83V, F93I, F96L, S100A, V106L
B7: CHG1-M-MIA-19E9 (antibody, human IgG1, V domains shown)
VH: DVQLQESGPGLVKPSQSLSLTCTVTGYSITSDYAWNWIRQFPGNKLEWMGFVSYSGTTKYNPSLKSRISITRDTSENQFFLQLNSVTSEDTATYYCARGYGFDYWGQGTTLTVSS
VL: EIVLTQSPTTMAASPGEKITITCSATSSISSIYFHWYQQRPGFSPKLLIYRTSNLASGVPARFSGSGSGTSYSLTIGTMEAEDVATYYCQQGTTIPFTFGSGTKLEIK
B8: CHG1-M-MIA-15F9 (antibody, human IgG1, V domains shown)
VH: DVQLQESGPDLVKPSQSLSLTCTVTGYSITSGYSWHWIRQFPGNKLEWMGFIHYSGSTDYNPSLKSRISLTRDTSKNQFFLQLNSVSTEDTATYYCAKDYGHWYFDVWGAGTTVTVSS
VL: SIVMTQTPKFLLVSAGDRVTITCKASQSVSYDVAWYQQKPGQSPKLLIFYASNRYTGVPARFTGSGYGTDFTFTISTVQAEDLAVYFCQQDYSSLTFGAGTKLELK

Biological target: MIC #2-7 Macaca fascicularis protein (Macaca fascicularis)
Assay: flow cytometry on Baf/3 cells transfected with Macaca fascicularis MIC

| binding | Binder |
| --- | --- |
| binds | B1 |
| binds | B2 |
| binds | B3 |
| binds | B4 |
| binds | B5 |
| binds | B6 |
| binds | B7 |
| binds | B8 |

Biological target: MIC #9-1 Macaca fascicularis protein (Macaca fascicularis)
Assay: as above

| binding | Binder |
| --- | --- |
| binds | B1 |

Reference: patent US20200299380A1
